Source: PubChem BioAssay AID1508597 (Cure First, 2020)
Shown is an unselected part of the about 2,100 reagents, in one setting of the screen. 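Calls flag viability under 80% in either arm, not effects specific to rucaparib; the reference for percent is not stated.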 A reagent listed more than once was tested more than once; the source does not tell the runs apart. Not stated in the record: the 100% reference.

- Assay: 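Knock-downs altering ovarian cancer cell survival with or without PARP inhibitor rucaparib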 (primary screen)
- Cell system: human ovarian carcinoma lines grown from tumours: OCI-P5x (papillary serous) and OCI-C5x (clear cell)
- Knock-down reagent: siRNA pool against human genes, 1.25 pmol siRNA per well
- Time to read-out: 72 h or 96 h, depending on the cell culture
- Challenge: rucaparib 20 µM (about IC30) or vehicle, present until read-out
- Rucaparib or vehicle: Rucaparib
- Cell line: OCI-C5x (clear cell)
- Measurement: 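ATP luminescence measured at 72 or 96 h according to the culture, then normalised and expressed as percent viability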
- Scale: viability, normalised: higher = more viable cells remaining
- Hit rule: 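Active when normalised viability falls below 80 percent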
- Meaning of the calls: active = viability under 80%; inactive = viability 80% or more

target gene,technical replicate,"viability, normalised (%)",Call
WDR77,1,55.1,active
WDR77,2,39.6,active
WDR77,3,41.3,active
SP3,1,37.1,active
SP3,2,30.3,active
SP3,3,25.3,active
XPC,1,56.1,active
XPC,2,50.7,active
XPC,3,52.8,active
PDK1,1,38.8,active
PDK1,1,40.1,active
PDK1,2,54.6,active
PDK1,2,35.1,active
PDK1,3,28.7,active
PDK1,3,39.8,active
BTAF1,1,40.6,active
BTAF1,2,56.5,active
BTAF1,3,42.2,active
PPM1D,1,70.1,active
PPM1D,2,71.8,active
PPM1D,3,77.2,active
SNRNP200,1,43.7,active
SNRNP200,1,34.4,active
SNRNP200,2,49.7,active
SNRNP200,2,41.3,active
SNRNP200,3,45.8,active
SNRNP200,3,34.4,active
PIM2,1,63.9,active
PIM2,2,71.5,active
PIM2,3,42.8,active
MOV10,1,42.5,active
MOV10,2,49.2,active
MOV10,3,42,active
RNF168,1,51.8,active
RNF168,1,51.2,active
RNF168,2,38,active
RNF168,2,51.4,active
RNF168,3,36.8,active
RNF168,3,37.5,active
PAPSS2,1,66.4,active
PAPSS2,2,49.7,active
PAPSS2,3,68.3,active
ELP4,1,55.1,active
ELP4,2,41.2,active
ELP4,3,56.9,active
BRPF3,1,56.7,active
BRPF3,2,60.1,active
BRPF3,3,48.9,active
NFAM1,1,59.4,active
NFAM1,2,66.4,active
NFAM1,3,62.4,active
HECTD3,1,65.8,active
HECTD3,2,88.2,inactive
HECTD3,3,76.8,active
SETD1A,1,42.8,active
SETD1A,2,49.6,active
SETD1A,3,45.3,active
HDAC2,1,47.7,active
HDAC2,1,29,active
HDAC2,2,71.8,active
HDAC2,2,46.7,active
HDAC2,3,78.7,active
HDAC2,3,44.4,active
TBL1XR1,1,26.6,active
TBL1XR1,1,59.9,active
TBL1XR1,2,31.3,active
TBL1XR1,2,57.4,active
TBL1XR1,3,36.6,active
TBL1XR1,3,48,active
ATR,1,48.7,active
ATR,1,72.2,active
ATR,2,66.6,active
ATR,2,47.8,active
ATR,3,50.8,active
ATR,3,70.5,active

A stretch from the list above, as a working copy:
target gene,technical replicate,"viability, normalised (%)",Call
ELP4,2,41.2,active
ELP4,3,56.9,active
BRPF3,1,56.7,active
BRPF3,2,60.1,active
BRPF3,3,48.9,active
NFAM1,1,59.4,active
NFAM1,2,66.4,active
NFAM1,3,62.4,active
HECTD3,1,65.8,active
HECTD3,2,88.2,inactive
HECTD3,3,76.8,active
SETD1A,1,42.8,active
SETD1A,2,49.6,active
